B1: HGO-1 (protein, UniProt Q9Y041 1-437)
chain: MSEFDELKYLTGFGNEHATSDPRVPDALPVGQNSPQKCSHGLYAEQLSGTAFTAPRSQNQRSWLYRIRPSVIHRPFEAMKENDQHWTNNFSSIPPNPNQYRWNPFPLPTKEGVTFVDNLYTVCGGGDVISRTGLAIHQFSCNASMEHTAMYNSDGDFLIVPQQGALEITTEFGRLLVNPQEIAVIPQGIRFSVAVRGPSRGYILEVYGTHFQLPDLGPIGANGLANPRDFEAPVAWFEDLDVEFTIINKYQGSWFQAKQGHSPFDVVGWHGNYVPYKYDLKKFMVINTVSFDHCDPSIFTVLTAPSVKHGTAIADFVIFPPRWGCADNTFRPPYYHRNCMSEYMGLITGCYEAKEGGFKPGGGSLHSMMTPHGPDFNCFEMASNADLKPQRVAEGTMSFMFESSLNMAITNWAVYQNVDKDYYKDWQPLKKHFTMPK
B2: SIMR-1 (siRNA-defective and mortal germline) (protein, UniProt O01477 1-691)
chain: MSNEKQQWDDAYCLAEEMHDAGRPFKREELNIADQFICSRFSTIFEYDPYKDTYGFRNQELTHAIPVKSKCRHISDVDILELKKNTANADIRFPSYLNICPVYAMHPFTVLAFDLSKPVPMGMNASMENAAPNMKSPTEAEITPGTIYIFKHRDNKCYRCVILFEDGDNNVSDADRKYMVAFLDTPQVVSVKLKTLFHLGKFTIESYPCALYCCRAVGILEIRKDFGADLNGQINEFYKDKVKRKSGVHALIYKKDDRGDKLIFDCPSILGTSMTMALEIKDVIGHRSVAENDPTALSYDELVSKQLPTVDIDDHNSSVVLDLEESVIAQELGSTNGADCPCNNDNIDDFMQSQRQNPLDNNRDNWDRINESRSSMQSFAINQSQAITANPTPQPTFDESSGEVQTIPESINNLALNGRYLEDGRGTEEIREERSVESRQIGNQVVSQASCNYLEARQNSTQTANAESVCAIISESHAALPTDIQVIPSQHVLNENNHTVLPSVAPIIRNATGHSHIFGRQIPSPAFRRESLSSGNSIQVATFAATTGPCGSNTSRPTAQNTANSSINQDMSISNSSTNARLITIAQDNLNDTENWPNSEREQSATEMESGAEATTNSAVDEFAQVSDDMKGLADSMINFLRLTANSNNQDAFKANIFAMELISTKIPNQLTKRFFTLKIAEAKSLAEGFN
B3: MATH-33 (protein, UniProt Q7JKC3 1-1135)
chain: MQCSPDPEDLLIVPTHDIPSYDESLDPFGPEGHLSLDIDCFSKFMSRSDNRIMSKPIIVRGIPWRILAICRNQQGSRHSMNSRVNRSNFNFGFFLQCNNDELLQKRGMWRCYGTAVLEVLNADGPSIQKKIHHSFHNTEVDWGFSNYDQYDTLCNPKDGYVVNDTIKLRCRFTADVPTGANYMWDSKRHTGCIGLRNQGATCYMNSILQSFYFTTGFRRAVYNMDVGTEPNESNIVLAMQRVFYELQMASEAVETNSLTRAFGWDKLDAFNQHDVQEFCRVLLDNLETKMKGTSEEKSIPNLFRGNMKSYIKCLDVDYESSRTESFYDVQLNVLGMDSLERAFEAYTTSEILDDENKYDAGDHGLQRAEKGVKFVELPPILHVQLMRFQYCGVEQKINERFSFPEKMNLASCCELGPMLTEEDCVYSLHAVLVHSGEFHGGHYVTYINVNLHESAVDPTSSAKWCKFDDDVVSRTTTDDAIVSNFGGEKTMNSSAYMLVYVRDNAIDQFLAPIPDSQIPQSVSRTFEMERLHRNREKKKLEEEQLCMGIVLVTPDIVASNHSFDLVDQSIVHDSIPHETVWKHMFTAELYQFVHDRLFEKSAMQKIDMFDSDDEARQARRDNLRRIKSKKFNFRLWRMTDSYSLERTTQKLTSRLRPSEFIDCKTDTRLDTLLSQDFETIYVEFSNNIERPLCEYDTARDLLFFVKYYDTMTDKFTIIGHTMFDCHKRFNLYRSMLCEMIGLPADTELKYYMEHAASYLELVDLTQNYSIGRLVEEQDGGILVVEKVETSTSTQNAKQKMNELFLDVEVEFVQSFYNKKPEEEPFEQFVKRICLDDKLFTVAEEIGARLNVDPKKVLIWTRVSGSRFEPFFDDYMLNTCKGLMTRPVHDPRAYKRYRVQYAIMPFDIDEISKHRIQTKLFWQLPNGHVEELTLFPLKEGTVIDIINEAKRYYPFVEGGSGKFRLLQIGAPPLSNQRVYQIYGENTLISDLDQRTMYKLVSSQALHCRLEEVPIDELDMSPGEFLCPVVHFDREPTKLFGLSFVIKIRNNELMTEVRDRLRRKLNDVSDADFAKYKFALLSRDKLQLCRTIEFNNGEKVNLADMANQTTGVPQVYIGLDHKSPIQHSSEAAIRILN

These are yes or no findings as the source states them, for the method shown. In cells and extracts the contact can be indirect. A yes stands for co-enrichment or nearness to the bait. Other partners may have been found.

The target in this assay is MUT-16::GFP::3xFLAG (C. elegans). In words: affinity purification with mass spectrometry; separate immunoprecipitations with anti-GFP (RQ2) and anti-FLAG (M2) affinity matrix from lysate of ~500,000 adult worms with MUT-16::GFP::3xFLAG; N2 wild type as control; IP buffer 50 mM Tris-Cl pH 7.4, 100 mM KCl, 2.5 mM MgCl2, 0.1% Igapal CA-630; 4°C, 2 hr, washed 10 times.
On to B1, for which the binding result was “binds”.

On to B2, for which the binding result is listed as “binds”.

As to B3, the binding entry is given as “binds”.
